Reference: doi:10.1101/478008

Assays:
[1] = biological target: T1, MBP-Puf3 (full-length S. pombe Puf3, N-terminal maltose-binding protein fusion) (S. pombe) (UniProt O94462); test: pull-down
T1 sequence: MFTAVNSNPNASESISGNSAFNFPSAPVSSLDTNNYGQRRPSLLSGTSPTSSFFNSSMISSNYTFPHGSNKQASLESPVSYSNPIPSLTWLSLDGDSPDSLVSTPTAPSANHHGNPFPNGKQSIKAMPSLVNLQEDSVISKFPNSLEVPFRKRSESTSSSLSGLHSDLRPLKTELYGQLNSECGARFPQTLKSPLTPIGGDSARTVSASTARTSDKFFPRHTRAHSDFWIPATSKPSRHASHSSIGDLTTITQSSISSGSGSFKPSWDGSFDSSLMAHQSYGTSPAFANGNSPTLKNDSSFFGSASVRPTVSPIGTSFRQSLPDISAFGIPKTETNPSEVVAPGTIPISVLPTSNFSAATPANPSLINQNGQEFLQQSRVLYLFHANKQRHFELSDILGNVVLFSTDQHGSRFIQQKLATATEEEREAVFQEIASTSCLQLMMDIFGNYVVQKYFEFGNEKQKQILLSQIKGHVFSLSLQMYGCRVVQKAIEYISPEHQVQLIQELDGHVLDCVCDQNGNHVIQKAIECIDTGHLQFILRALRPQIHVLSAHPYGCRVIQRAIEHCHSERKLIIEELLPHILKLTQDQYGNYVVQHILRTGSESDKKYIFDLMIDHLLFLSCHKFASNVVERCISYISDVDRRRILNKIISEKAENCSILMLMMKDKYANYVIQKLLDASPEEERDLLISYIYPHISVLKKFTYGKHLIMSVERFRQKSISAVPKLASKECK

[2] = biological target: T2, MBP-Zfs1 (full-length S. pombe Zfs1, N-terminal maltose-binding protein fusion) (S. pombe) (UniProt P47979); test: pull-down
T2 sequence: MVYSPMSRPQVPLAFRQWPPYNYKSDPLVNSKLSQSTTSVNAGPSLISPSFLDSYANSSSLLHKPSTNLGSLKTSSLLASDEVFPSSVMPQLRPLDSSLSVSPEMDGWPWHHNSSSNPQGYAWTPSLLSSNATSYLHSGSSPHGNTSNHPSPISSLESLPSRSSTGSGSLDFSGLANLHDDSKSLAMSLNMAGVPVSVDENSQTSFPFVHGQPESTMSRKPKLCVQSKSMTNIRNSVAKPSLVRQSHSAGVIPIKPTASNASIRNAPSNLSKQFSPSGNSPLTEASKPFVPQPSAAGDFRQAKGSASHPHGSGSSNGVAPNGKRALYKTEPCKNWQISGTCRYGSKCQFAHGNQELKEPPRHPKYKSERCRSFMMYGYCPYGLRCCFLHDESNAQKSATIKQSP

In the case of “Ccr4-Not complex (intact recombinant seven-subunit S. pombe complex) (Schizosaccharomyces pombe)”, the binding [1] is reported as “binds” and the binding [2] is reported as “binds”.

Results are given in words; binding and its absence hold for the method and conditions named. Binding can be weak; no strength is given. Sequences can lack the tags named with a protein.
